PubChem BioAssay AID192 (DTP/NCI, 2004)
The list is a part of this screen's results and no random one: it gathers tests that were run many times, whatever their T/C, doses with no T/C, and many T/C values between a quarter and a half above the control. Other doses and runs of a compound stand elsewhere. T/C is the treated group as % of the vehicle group. Some entries give survivors of the animals treated and no T/C: the source files T/C as zero there, which appears to mark a toxic dose or a test without result, not a measured value. Some doses without a T/C left all or most animals alive at the check, yet need not have been tolerated: the source hardly ever lists a survival T/C far under the control, and the zero likely stands for such cases as well. Survivors were counted at the toxicity check, usually on the fifth day, unless a day is given; later deaths do not show. Schedules are NCI's codes, taken here to give the interval after Q, in days (D) or hours (H), and the number of doses after X. Some entries hold several experiments; the results are listed from low to high. Where survival is the endpoint, the PubChem record calls one and a half times the control and up active, and a quarter to a half above the control has no call in these data; cut-offs in other NCI protocols can differ. Some T/C values are followed by the survivors on the day toxicity was checked, most often the fifth; where none is given, no animal had died by that day.

System: BDF1 mice, B16 melanoma ip, median survival T/C
Test: NCI In Vivo Anticancer Drug Screen. Data for tumor model B16 Melanoma (intraperitoneal) in B6D2F1 (BDF1) mice
Conditions: T/C endpoint: median survival time, higher T/C = longer survival
Method in brief: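 Transplantable tumor model; survival or tumor size measured; reported as T/C, treated over vehicle control.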

[1] = dose: 50.0 mg/kg/injection, schedule: Q01DX009 (ip), vehicle: Klucel (hydroxypropylcellulose) (HPC)
[2] = dose: 200.0 mg/kg/injection, schedule: Q01DX009 (ip), vehicle: Klucel (hydroxypropylcellulose) (HPC)
[3] = dose: 400.0 mg/kg/injection, schedule: Q01DX009 (ip), vehicle: Klucel (hydroxypropylcellulose) (HPC)
[4] = dose: 25.0 mg/kg/injection, schedule: Q01DX009 (ip), vehicle: Klucel (hydroxypropylcellulose) (HPC)
[5] = dose: 100.0 mg/kg/injection, schedule: Q01DX009 (ip), vehicle: Klucel (hydroxypropylcellulose) (HPC)
[6] = dose: 4.0 mg/kg/injection, schedule: Q01DX009 (ip), vehicle: saline
[7] = dose: 100.0 mg/kg/injection, schedule: Q01DX009 (ip), vehicle: saline with Tween-80
[8] = dose: 200.0 mg/kg/injection, schedule: Q01DX009 (ip), vehicle: saline with Tween-80
[9] = dose: 200.0 mg/kg/injection, schedule: Q01DX009 (ip), vehicle: saline

Structure (SMILES): C[C@@H]1CC2=CC(=O)C=C[C@]2(C)[C@H]2CC[C@@]3(C)[C@@H](CC[C@]3(C)O)[C@H]12
- survivor count [1]: 10 of 10
- survivor count [2]: 10 of 10
- survivor count [3]: 10 of 10

Structure (SMILES): CCOC(=O)NC(C)(C)CC(C)(C)C
- survivor count [2]: 5 of 10
- survivor count [3]: 4 of 10

Structure (SMILES): NC1CCC(CCCC2CCCC2)CC1 (centres undefined)
- survivor count [4]: 10 of 10
- survivor count [1]: 10 of 10
- survivor count [5]: 6 of 10

Structure (SMILES): Nc1c(Br)cc2c(c1Br)Cc1cc(Cl)ccc1-2
- survivor count (dose: 25.0 mg/kg/injection, schedule: Q01DX009 (ip), vehicle: other): 10 of 10
- survivor count (dose: 100.0 mg/kg/injection, schedule: Q01DX009 (ip), vehicle: other): 10 of 10
- survivor count [2]: 10 of 10
- survivor count (dose: 400.0 mg/kg/injection, schedule: Q04DX003 (ip), vehicle: other): 9 of 10

Structure (SMILES): O=C1C(N2CCCCC2)=C(N2CC2)C(=O)C(N2CCCCC2)=C1N1CC1
- survivor count (dose: 5.0 mg/kg/injection, schedule: Q01DX009 (ip), vehicle: saline): 9 of 10
- survivor count (dose: 10.0 mg/kg/injection, schedule: Q01DX009 (ip), vehicle: saline): 10 of 10
- survivor count (dose: 20.0 mg/kg/injection, schedule: Q01DX009 (ip), vehicle: saline): 6 of 10 and 9 of 10

Structure (SMILES): Cc1ccc(S(=O)(=O)N/N=C/c2ccccc2Cl)cc1
- survivor count [4]: 10 of 10

Structure (SMILES): S=C=NCc1cccc(CN=C=S)c1
- survivor count (dose: 7.5 mg/kg/injection, schedule: Q04DX003 (ip), vehicle: saline with Tween-80): 9 of 10
- survivor count (dose: 15.0 mg/kg/injection, schedule: Q04DX003 (ip), vehicle: saline with Tween-80): 6 of 10
- survivor count (dose: 30.0 mg/kg/injection, schedule: Q04DX003 (ip), vehicle: saline with Tween-80): 1 of 10

Structure (SMILES): OC(C1CO1)C(O)C1CO1 (centres undefined)
- T/C (dose: 0.25 mg/kg/injection, schedule: Q03HX024 (ip), vehicle: saline): 131 % of control
- T/C (dose: 0.5 mg/kg/injection, schedule: Q01DX009 (ip), vehicle: saline): 107, 109, 111 [9 of 10 alive], 118 % of control
- T/C (dose: 0.5 mg/kg/injection, schedule: Q03HX016 (ip), vehicle: saline): 142 % of control
- T/C (dose: 0.5 mg/kg/injection, schedule: Q03HX024 (ip), vehicle: saline): 141 % of control
- T/C (dose: 1.0 mg/kg/injection, schedule: Q01DX009 (ip), vehicle: saline): 118, 120, 123, 130 % of control
- T/C (dose: 1.0 mg/kg/injection, schedule: Q03HX008 (ip), vehicle: saline): 141 % of control
- T/C (dose: 1.0 mg/kg/injection, schedule: Q04DX003 (ip), vehicle: saline): 130 % of control
- T/C (dose: 2.0 mg/kg/injection, schedule: Q01DX001 (ip), vehicle: saline): 129 % of control
- T/C (dose: 2.0 mg/kg/injection, schedule: Q01DX009 (ip), vehicle: saline sonified): 136 % of control
- T/C (dose: 2.0 mg/kg/injection, schedule: Q01DX009 (ip), vehicle: saline): 145, 147, 156, 160 % of control
- survivor count (dose: 2.0 mg/kg/injection, schedule: Q03HX024 (ip), vehicle: saline): 10 of 10
- T/C (dose: 2.0 mg/kg/injection, schedule: Q08DX002 (ip), vehicle: saline): 141 % of control
- T/C [6]: 105 and 214 % of control
- survivor count [6]: 8 of 10 and 10 of 10
- survivor count (dose: 4.0 mg/kg/injection, schedule: Q03HX008 (ip), vehicle: saline): 8 of 10
- survivor count (dose: 4.0 mg/kg/injection, schedule: Q03HX016 (ip), vehicle: saline): 10 of 10
- survivor count (dose: 4.0 mg/kg/injection, schedule: Q03HX024 (ip), vehicle: saline): 8 of 10
- survivor count (dose: 8.0 mg/kg/injection, schedule: Q01DX005 (ip), vehicle: saline): 10 of 10
- survivor count (dose: 8.0 mg/kg/injection, schedule: Q01DX009 (ip), vehicle: saline sonified): 6 of 6
- survivor count (dose: 8.0 mg/kg/injection, schedule: Q01DX009 (ip), vehicle: saline): 9 of 10 and 10 of 10
- survivor count (dose: 8.0 mg/kg/injection, schedule: Q03HX008 (ip), vehicle: saline): 9 of 10
- survivor count (dose: 8.0 mg/kg/injection, schedule: Q03HX016 (ip), vehicle: saline): 10 of 10
- survivor count (dose: 8.0 mg/kg/injection, schedule: Q04DX003 (ip), vehicle: saline): 10 of 10
- survivor count (dose: 16.0 mg/kg/injection, schedule: Q01DX001 (ip), vehicle: saline): 7 of 10
- survivor count (dose: 16.0 mg/kg/injection, schedule: Q01DX005 (ip), vehicle: saline): 9 of 10
- survivor count (dose: 16.0 mg/kg/injection, schedule: Q01DX009 (ip), vehicle: saline sonified): 6 of 6
- survivor count (dose: 16.0 mg/kg/injection, schedule: Q01DX009 (ip), vehicle: saline): 6 of 10
- survivor count (dose: 16.0 mg/kg/injection, schedule: Q04DX003 (ip), vehicle: saline): 6 of 10 and 6 of 6
- survivor count (dose: 16.0 mg/kg/injection, schedule: Q08DX002 (ip), vehicle: saline): 10 of 10
- survivor count (dose: 32.0 mg/kg/injection, schedule: Q01DX001 (ip), vehicle: saline): 5 of 10
- survivor count (dose: 32.0 mg/kg/injection, schedule: Q04DX003 (ip), vehicle: saline): 2 of 6 and 6 of 10
- survivor count (dose: 32.0 mg/kg/injection, schedule: Q08DX002 (ip), vehicle: saline): 8 of 10
- survivor count (dose: 64.0 mg/kg/injection, schedule: Q01DX001 (ip), vehicle: saline): 10 of 10
- survivor count (dose: 64.0 mg/kg/injection, schedule: Q08DX002 (ip), vehicle: saline): 10 of 10

Structure (SMILES): CCc1cc(O)cc(C)c1Cl
- survivor count [7]: 10 of 10
- survivor count [8]: 10 of 10

Structure (SMILES): Cc1cc2oc(C)[n+](Cc3ccccc3)c2cc1C
- survivor count [8]: 10 of 10

Structure (SMILES): COC1=C(Br)[C@H](O)[C@](O)(CC#N)C=C1Br
- survivor count [1]: 10 of 10
- survivor count [5]: 5 of 10
- survivor count (dose: 140.0 mg/kg/injection, schedule: Q01DX009 (ip), vehicle: Klucel (hydroxypropylcellulose) (HPC)): 10 of 10

Structure (SMILES): Cc1cc(Cl)ccc1NC(=O)Nc1ccc(Cl)c(Cl)c1
- survivor count (dose: 200.0 mg/kg/injection, schedule: Q04DX003 (ip), vehicle: Klucel (hydroxypropylcellulose) (HPC)): 10 of 10

Structure (SMILES): Cc1ccc(CNc2ccc(Br)cc2)cc1
- survivor count [3]: 10 of 10

Structure (SMILES): CCNCC#CCNCC
- survivor count [9]: 8 of 10

Structure (SMILES): O=C1CC2(C(=O)N1CN1CCCCC1)c1ccccc1-c1ccccc12
- survivor count [3]: 10 of 10

Structure (SMILES): COc1ccc(Cl)cc1NC(=O)Nc1ccccc1
- survivor count [5]: 10 of 10
- survivor count [2]: 10 of 10
- survivor count [3]: 10 of 10

Structure (SMILES): CCCC(OC(C)=O)C(Cl)(Cl)Cl (centres undefined)
- survivor count [5]: 9 of 10

Structure (SMILES): CC1(C)OC(CI)C(COS(C)(=O)=O)O1 (centres undefined)
- survivor count [7]: 5 of 10
- survivor count [8]: 6 of 10

Structure (SMILES): COC(OC(CO)C(O)S(=O)(=O)O)C(O)S(=O)(=O)O (centres undefined)
- T/C [9]: 131 % of control
- survivor count (dose: 400.0 mg/kg/injection, schedule: Q01DX009 (ip), vehicle: saline): 10 of 10

Structure (SMILES): CC[C@]12CN3CCc4c([nH]c5ccccc45)[C@@](C(=O)OC)(c4cc5c(cc4OC)N(C=O)[C@H]4[C@@](O)(C(=O)OC)[C@H](OC(C)=O)[C@]6(CC)C=CCN7CC[C@]54[C@@H]76)C[C@H](C3)[C@H]1O2
- T/C (dose: 1.0 mg/kg/injection, schedule: Q01DX011 (ip), vehicle: saline): 126 % of control
- T/C (dose: 2.0 mg/kg/injection, schedule: Q01DX011 (ip), vehicle: saline): 148 % of control

Structure (SMILES): COC1/C=C/O[C@@]2(C)Oc3c(C)c(O)c4c(O)c(cc(O)c4c3C2=O)NC(=O)/C(C)=C\C=C\[C@H](C)C(O)[C@@H](C)[C@@H](O)[C@@H](C)[C@H](OC(C)=O)[C@@H]1C (some centres undefined)
- survivor count (dose: 400.0 mg/kg/injection, schedule: Q01DX009 (ip), vehicle: saline with Tween-80): 6 of 6
